Data published in patent US20150275180A1, “Chemical preconditioning process for cell material to obtain chemical epigenetic reprogramming and pluripotency expression” (priority 2012, published 2015).
At least one compound was matched to its structure with a doubt left.

System: human dermal skin fibroblasts
Assay: Comparative analysis of HBR, its grafting moieties alone or as a mixture, on stemness gene expression
Type: cell-based
Details: 12 hours, 2.0 mg/ml HBR, 1.5 mg/ml HA, 2.5 mM BU, 10^-8M RA, hydrolyzed HBR 2 mg/ml
Experimental: FIG. 6 is the comparative analysis of the effect of HBR, or its grafting moieties alone or as a mixture, on the expression of sternness-related genes in human dermal skin fibroblasts: cells were incubated for 12 hours in the absence or presence of 2.0 mg/ml HBR, 1.5 mg/ml HA, 2.5 mM BU, or 10^-8M RA, or exposed to a hydrolyzed (HY) HBR solution (2 mg/ml), obtained from a 2-h basic HBR hydrolysis followed by pH neutralization. This procedure affords a complete release of each single HBR grafted moiety, leading to the formation of a mixture of HA, BU, and RA, with each molecule in the concentration range reported above for the experiments based on cell incubation in the presence of each molecule alone. The amount of each transcript from exposed or unexposed cells was normalized to HPRT1, and the mRNA expression of exposed cells was plotted at each time point as fold change relative to the expression in control unexposed cells, defined as 1 (mean±S.E.; n=6).
This procedure affords a complete release of each single HBR grafted moiety, leading to the formation of a mixture of HA, BU, and RA, with each molecule in the concentration range reported above for the experiments based on (stem) cell incubation in the presence of each molecule alone.

CC1=C(/C=C/C(C)=C/C=C/C(C)=C/C(=O)O)C(C)(C)CCC1 [RA, retinoic acid] was tested. Which “transcription of the stemness/pluripotency genes Sox2, Nanog and Oct4 versus unexposed control” value did it give?
The value was “significantly increased”.
